# Laboratory results taken from ChEMBL document CHEMBL4513155, “CO-ADD screening of University of Sydney (Australia) compounds” (2021).
# Some of the results follow. Entries with a potency or affinity are not part of this list.
# Test system: Pseudomonas aeruginosa
# Conditions: Concentration 32 ug.mL-1; ASSAY_TEST Inhibition of Bacterial Growth; detection method Absorption (OD600); MEDIA CAMHB; plate type 384well; NBS; CORNING #3640; time 18 hr
row,Compound,Inhibition [%]
1,COC(COc1cncc2nnc(-c3ccc(C#N)cc3)n12)c1ccc(F)c(F)c1 (configuration not stated),5.71
2,Fc1ccc(CCOc2cncc3nnc(-c4ccc(C(F)(F)F)nc4)n23)cc1F,7.52
3,O.O=C1c2cccc3c(-n4cc(CN5CCCNCCN(Cc6cn(-c7ccc8c9c(cccc79)C(=O)N(CCCO)C8=O)nn6)CCCNCC5)nn4)ccc(c23)C(=O)N1CCCO.[Cl-].[Cl-].[Zn+2],13.01
4,CCN1C(=O)c2cccc3c(-c4cn(CCN5CCCNCCN(CCn6cc([C@]7(O)CC[C@H]8[C@@H]9CCc%10cc(O)ccc%10[C@H]9CC[C@@]87C)nn6)CCCNCC5)nn4)ccc(c23)C1=O.OCCN1CCN(CCCN2c3ccccc3Sc3ccc(Cl)cc32)CC1.[O-][Cl+3]([O-])([O-])[O-].[O-][Cl+3]([O-])([O-])[O-].[Zn+2],8.33
5,CN(C)C(COc1cncc2nnc(-c3ccc(C#N)cc3)n12)c1ccc(F)c(F)c1 (configuration not stated),7.19
6,N#Cc1ccc(-c2nnc3cncc(OCC(O)c4ccc(F)c(F)c4)n23)cc1 (configuration not stated),8.24
7,Fc1ccc(CCOc2cncc3nnc(-c4ccc(Cl)cc4)n23)cc1F,4.4
